Assay: general procedure: Fmoc solid-phase peptide synthesis; NovaSyn TGR resin; PyBOP, diisopropylethylamine
Details: whole synthesis, scale 0.1 mmol, acetate salt

(H-Lys)8(H-Lys)4(Lys)2LysCysNH2
isolated mass: 21 mg
